Measured values: paper doi:10.1101/2022.12.10.519866 (bioRxiv, 2022)
No constants are given. Whether binding was seen depends on the method and setting. Binding can be weak; no strength is given.

Sequences of proteins named here, by UniProt entry; tags and fusion partners are left off. A change or cut given only in a name is not applied to a line headed by its entry.
UniProt O88738: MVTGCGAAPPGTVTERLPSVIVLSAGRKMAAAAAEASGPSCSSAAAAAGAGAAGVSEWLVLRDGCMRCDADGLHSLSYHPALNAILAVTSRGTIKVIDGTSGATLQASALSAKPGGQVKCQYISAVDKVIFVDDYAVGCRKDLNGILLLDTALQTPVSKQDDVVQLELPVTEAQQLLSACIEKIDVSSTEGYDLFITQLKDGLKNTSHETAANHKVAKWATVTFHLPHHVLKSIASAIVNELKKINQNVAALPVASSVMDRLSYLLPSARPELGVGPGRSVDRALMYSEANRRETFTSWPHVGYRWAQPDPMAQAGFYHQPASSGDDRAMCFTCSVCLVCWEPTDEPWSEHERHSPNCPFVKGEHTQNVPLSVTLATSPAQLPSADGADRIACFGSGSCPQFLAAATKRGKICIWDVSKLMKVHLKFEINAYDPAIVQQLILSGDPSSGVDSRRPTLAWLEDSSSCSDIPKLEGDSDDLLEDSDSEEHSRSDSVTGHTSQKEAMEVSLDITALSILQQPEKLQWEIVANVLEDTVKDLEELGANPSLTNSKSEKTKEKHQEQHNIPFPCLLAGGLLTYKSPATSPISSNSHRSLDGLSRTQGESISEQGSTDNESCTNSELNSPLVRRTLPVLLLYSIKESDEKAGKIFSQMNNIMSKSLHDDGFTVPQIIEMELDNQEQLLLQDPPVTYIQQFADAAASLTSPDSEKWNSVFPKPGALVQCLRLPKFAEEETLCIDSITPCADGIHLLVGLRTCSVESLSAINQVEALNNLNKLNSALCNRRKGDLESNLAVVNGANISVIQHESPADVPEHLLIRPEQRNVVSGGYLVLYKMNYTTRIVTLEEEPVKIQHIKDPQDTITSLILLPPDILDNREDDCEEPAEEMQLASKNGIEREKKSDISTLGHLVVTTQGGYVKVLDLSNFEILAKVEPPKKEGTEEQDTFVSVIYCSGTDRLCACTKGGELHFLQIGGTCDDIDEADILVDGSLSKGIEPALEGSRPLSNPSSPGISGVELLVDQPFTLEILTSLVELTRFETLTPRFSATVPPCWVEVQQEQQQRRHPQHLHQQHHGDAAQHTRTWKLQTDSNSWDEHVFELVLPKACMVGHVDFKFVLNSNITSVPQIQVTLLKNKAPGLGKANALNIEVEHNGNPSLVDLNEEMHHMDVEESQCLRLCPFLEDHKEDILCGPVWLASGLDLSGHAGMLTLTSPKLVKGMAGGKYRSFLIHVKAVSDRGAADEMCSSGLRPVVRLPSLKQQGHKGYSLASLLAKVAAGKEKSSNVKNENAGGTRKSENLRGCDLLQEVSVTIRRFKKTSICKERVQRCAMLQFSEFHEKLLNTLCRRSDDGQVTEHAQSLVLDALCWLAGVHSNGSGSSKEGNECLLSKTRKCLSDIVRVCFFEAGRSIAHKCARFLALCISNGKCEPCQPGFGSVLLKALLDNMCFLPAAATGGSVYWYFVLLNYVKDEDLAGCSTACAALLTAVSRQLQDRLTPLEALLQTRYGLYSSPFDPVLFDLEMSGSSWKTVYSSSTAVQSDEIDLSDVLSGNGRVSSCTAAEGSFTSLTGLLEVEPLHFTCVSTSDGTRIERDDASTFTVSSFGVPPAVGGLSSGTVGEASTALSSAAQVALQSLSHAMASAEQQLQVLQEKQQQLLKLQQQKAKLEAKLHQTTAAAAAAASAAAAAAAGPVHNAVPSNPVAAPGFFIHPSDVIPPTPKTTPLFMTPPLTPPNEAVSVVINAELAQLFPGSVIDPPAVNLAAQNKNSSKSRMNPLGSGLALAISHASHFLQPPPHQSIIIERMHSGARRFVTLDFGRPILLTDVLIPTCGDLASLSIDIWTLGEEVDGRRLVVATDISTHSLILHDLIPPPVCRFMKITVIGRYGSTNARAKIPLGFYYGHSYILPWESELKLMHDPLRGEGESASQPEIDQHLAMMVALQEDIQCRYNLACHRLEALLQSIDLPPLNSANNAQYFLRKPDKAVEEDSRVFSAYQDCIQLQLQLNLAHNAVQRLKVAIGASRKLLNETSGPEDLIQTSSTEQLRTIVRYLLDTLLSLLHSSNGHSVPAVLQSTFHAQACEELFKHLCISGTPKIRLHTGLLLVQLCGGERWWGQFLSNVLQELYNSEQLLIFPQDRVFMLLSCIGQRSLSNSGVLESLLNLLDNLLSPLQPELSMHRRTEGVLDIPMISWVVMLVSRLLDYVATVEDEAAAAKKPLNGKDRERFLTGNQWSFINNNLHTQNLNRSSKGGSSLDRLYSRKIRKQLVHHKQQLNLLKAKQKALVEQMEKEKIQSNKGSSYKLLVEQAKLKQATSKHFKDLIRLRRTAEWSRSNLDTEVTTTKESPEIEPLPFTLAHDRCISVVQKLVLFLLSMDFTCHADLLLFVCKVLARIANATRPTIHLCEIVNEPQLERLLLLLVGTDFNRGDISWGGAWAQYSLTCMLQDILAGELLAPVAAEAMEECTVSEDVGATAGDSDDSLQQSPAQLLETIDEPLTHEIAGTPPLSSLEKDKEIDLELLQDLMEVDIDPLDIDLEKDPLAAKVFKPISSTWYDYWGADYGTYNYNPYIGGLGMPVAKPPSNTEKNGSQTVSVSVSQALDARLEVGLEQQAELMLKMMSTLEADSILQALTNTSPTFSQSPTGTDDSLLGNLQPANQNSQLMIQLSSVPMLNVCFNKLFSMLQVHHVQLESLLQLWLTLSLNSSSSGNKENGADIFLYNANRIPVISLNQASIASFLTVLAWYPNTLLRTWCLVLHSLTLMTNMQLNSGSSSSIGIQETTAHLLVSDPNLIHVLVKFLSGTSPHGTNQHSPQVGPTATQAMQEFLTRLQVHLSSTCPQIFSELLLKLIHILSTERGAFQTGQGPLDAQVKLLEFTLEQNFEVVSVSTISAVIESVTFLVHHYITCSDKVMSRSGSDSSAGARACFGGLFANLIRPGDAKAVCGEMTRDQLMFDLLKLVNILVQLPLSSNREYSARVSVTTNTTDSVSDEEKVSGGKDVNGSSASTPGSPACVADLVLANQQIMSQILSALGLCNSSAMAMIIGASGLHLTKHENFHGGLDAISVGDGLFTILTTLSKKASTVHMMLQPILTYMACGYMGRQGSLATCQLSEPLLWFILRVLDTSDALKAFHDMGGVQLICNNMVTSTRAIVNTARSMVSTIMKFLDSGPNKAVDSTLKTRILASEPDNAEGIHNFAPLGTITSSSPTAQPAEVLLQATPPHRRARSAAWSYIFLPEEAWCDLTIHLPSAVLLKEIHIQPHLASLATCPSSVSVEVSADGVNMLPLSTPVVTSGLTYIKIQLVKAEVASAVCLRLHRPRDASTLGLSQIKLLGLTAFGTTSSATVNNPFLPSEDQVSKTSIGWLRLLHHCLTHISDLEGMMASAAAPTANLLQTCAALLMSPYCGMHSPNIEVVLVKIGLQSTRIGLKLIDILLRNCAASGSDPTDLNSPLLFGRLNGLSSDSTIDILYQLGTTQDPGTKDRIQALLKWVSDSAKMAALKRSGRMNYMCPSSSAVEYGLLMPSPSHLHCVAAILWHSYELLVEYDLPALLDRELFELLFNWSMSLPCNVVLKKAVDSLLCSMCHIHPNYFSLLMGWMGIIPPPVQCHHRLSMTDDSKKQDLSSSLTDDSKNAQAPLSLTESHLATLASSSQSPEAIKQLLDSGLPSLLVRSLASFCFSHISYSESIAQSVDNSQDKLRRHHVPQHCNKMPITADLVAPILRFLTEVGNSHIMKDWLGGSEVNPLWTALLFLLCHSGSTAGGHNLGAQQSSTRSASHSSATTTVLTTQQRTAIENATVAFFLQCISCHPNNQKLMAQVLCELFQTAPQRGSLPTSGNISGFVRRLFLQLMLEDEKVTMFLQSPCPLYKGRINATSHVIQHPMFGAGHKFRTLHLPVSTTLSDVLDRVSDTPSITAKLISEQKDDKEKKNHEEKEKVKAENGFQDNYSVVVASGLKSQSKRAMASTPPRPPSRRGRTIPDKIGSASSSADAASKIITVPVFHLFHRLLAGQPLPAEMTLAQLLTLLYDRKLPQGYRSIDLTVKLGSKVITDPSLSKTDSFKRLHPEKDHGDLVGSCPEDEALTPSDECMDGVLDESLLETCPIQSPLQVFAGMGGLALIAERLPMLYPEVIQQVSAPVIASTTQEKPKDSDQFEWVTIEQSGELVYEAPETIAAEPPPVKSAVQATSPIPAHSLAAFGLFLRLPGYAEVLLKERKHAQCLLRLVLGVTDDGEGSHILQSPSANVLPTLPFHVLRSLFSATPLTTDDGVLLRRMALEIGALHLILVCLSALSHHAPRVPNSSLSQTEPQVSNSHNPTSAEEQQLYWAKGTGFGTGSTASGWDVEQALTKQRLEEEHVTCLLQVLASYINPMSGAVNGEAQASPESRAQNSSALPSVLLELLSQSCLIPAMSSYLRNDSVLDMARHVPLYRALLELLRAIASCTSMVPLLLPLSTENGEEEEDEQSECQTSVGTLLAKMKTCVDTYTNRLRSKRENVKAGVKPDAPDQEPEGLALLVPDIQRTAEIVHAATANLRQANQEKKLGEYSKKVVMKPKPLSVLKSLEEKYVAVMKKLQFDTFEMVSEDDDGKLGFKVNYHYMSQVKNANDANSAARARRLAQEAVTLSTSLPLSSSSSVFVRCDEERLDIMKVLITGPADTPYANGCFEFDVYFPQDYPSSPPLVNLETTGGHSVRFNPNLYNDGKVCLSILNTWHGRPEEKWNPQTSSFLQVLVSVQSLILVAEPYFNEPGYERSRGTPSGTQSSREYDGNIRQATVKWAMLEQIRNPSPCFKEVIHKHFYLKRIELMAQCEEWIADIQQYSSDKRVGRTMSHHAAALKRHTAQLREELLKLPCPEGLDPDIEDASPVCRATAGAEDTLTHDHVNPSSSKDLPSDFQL
UniProt P55211: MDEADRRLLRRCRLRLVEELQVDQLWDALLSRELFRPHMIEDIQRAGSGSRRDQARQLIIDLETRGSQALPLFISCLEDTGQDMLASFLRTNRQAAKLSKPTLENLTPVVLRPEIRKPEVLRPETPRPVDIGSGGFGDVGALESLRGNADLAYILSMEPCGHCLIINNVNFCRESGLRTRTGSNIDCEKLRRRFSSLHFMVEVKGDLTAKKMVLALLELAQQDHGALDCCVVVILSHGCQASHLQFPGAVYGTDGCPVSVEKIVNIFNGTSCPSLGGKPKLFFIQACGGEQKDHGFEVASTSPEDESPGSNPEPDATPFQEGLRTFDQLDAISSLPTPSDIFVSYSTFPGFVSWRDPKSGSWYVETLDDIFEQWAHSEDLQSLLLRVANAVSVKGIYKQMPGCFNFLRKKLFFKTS

Biological target: 3×FLAG-tagged full-length mouse BIRC6 (mouse, UniProt O88738 1-4882)
Assay: SEC

His-Caspase9-4M (E306A–D315A–D330A-C287A) (from UniProt P55211) (enzyme)
binding: binds
